In the test the test system is 3NA12 cells. Briefly: Calcium imaging (Fura-2) of odorant responses in clone 3NA12. It is filed as cell-based, mouse. As to conditions: 10 μM single odorant. The method, then: Prior to experiments (2-4 days), cells were plated onto glass coverslips and incubated in permissive conditions. To prepare for stimulation, cells were loaded with Fura-2 ([…]) for 30 minutes at 33° C., washed, and allowed to equilibrate for a further 30 minutes at room temperature. At the beginning of the experiment, cells were washed (W) to determine whether the mechanical disturbance associated with changing solution affected intracellular calcium concentrations.
To determine whether cells from the 3NA12 clone were capable of functional responses to odorants, single odorants were applied to cells loaded with Fura-2. […] Since the onset of odorant receptor expression is at c. E13 in the rat (Strotmann et al., 1995), and each of the components of the signal transduction pathway is present in cells cultured in permissive conditions, cells at permissive conditions were chosen for all subsequent experiments.
Cloned olfactory receptor neurons were plated onto glass coverslips up to one week before imaging. On the day of analysis, the culture medium was removed and replaced with MDV containing 2 μM Fura-2-AM (Molecular Probes, Eugene, Oreg.) and 0.2% Pluronic F-127 (Sigma) dissolved in DMSO. […] Cells were illuminated at 340 nm and 380 nm and the emission at 510 nm was monitored using an intensified CCD camera. […]

Turning to `CC(C)CC(=O)O` [isovaleric acid], for the setting “1256 cells”, the “Cells responding to each odorant” value was roughly 1%. Also, for the setting “total of 1256 cells in nineteen experiments, permissive conditions”, the “Cells responding to the odorant (increase in intracellular calcium concentration)” value was 12 cells.

Values taken from patent US20020048812A1, “Isolation and in vitro differentiation of conditionally immortalized murine olfactory receptor neurons” (priority 2000, published 2002).
